Results of single-concentration screens

From ChEMBL document CHEMBL3988442, “University of Dundee, Small-Polar-MMV Screening Library” (2021).

The filed quantity is “Percent Effect” (%). How 0% and 100% were set is not recorded. Most values in the screen are low, and negative values occur. This is an unselected part of the compounds tested. Two or more numbers in one place are separate tests of the same structure; such repeats can differ widely.

Mtb glucose medium: 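Growth of Mycobacterium tuberculosis over 3 days (7H9 medium with glucose and tyloxapol); the read-out is not stated. Tested at 50 µM. Higher reads as more growth inhibition (inferred: compounds with an IC50 in retests scored well above the rest). About 69,000 compounds were tested under these conditions; 1.1% (about 760) showed 50% or more at least once.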
Mtb cholesterol medium: 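Phenotypic screen: M. tuberculosis growth, cholesterol and DPPC medium, 4 days; the read-out is not stated. Concentration: 50 µM. Direction is inferred from retests: higher values go with more growth inhibition. Of about 69,000 compounds tested this way, about 370 (0.54%) reached 50% or more in at least one test.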

structure | Mtb glucose medium | Mtb cholesterol medium
CC(OCC(F)(F)F)C(=O)N1CCN(S(C)(=O)=O)CC1 (stereo not given) | -2.898 & -14.26 | -24.99
O=C(O)C(F)(F)F.[H][C@@]12CNCC[C@]1([H])OC[C@H](C(=O)NCCc1cccs1)C2 | 4.964 | -18.39
Cc1cc(F)c(S(=O)(=O)Nc2ccn(CCCC#N)n2)cc1F | 6.099 | -12.82
CSCCC1CC(=O)Nc2cc(O)c(C)cc21 (stereo not given) | -15.8 | -8.717
CS(=O)(=O)CCCNC1CCCN(Cc2noc(C3CC3)n2)C1 (stereo not given) | -0.6373 & -1.057 | -1.725
O=c1c2c(ncn1CCCO)nc1n2CCC1 | 29.69 | 18.08
Cc1nc(CN2CCCC(Cn3cc(CCO)nn3)C2)c[nH]1 (stereo not given) | 21.61 | 20.73
COc1ccc(NC(C)c2nnnn2-c2ccccc2)cn1 (stereo not given) | -42.93 | -19.02
Cc1cc(NC(=O)N(CC2CCOC2)C2CC2)no1 (stereo not given) | 11.2 | 7.49
CC(C)(CNc1ccc(C#N)c(C(F)(F)F)c1)C(N)=O | 50.43 | 35.13
CN1CCCN(S(=O)(=O)c2cn(C)cn2)c2cc(F)ccc21 | 9.156 | 11.48
COc1ccc(NC(=O)CSC(F)(F)F)cn1 | 9.553 | -11.92
O=C(CCSc1ccc(F)cc1)NS(=O)(=O)c1ccc2c(c1)OCCO2 | -2.315 | -1.62
NC(=O)C1CCCN1C(=O)c1cccc2c1OCO2 (stereo not given) | 8.279 | 16.9
CCNC(=O)NC1CCCN(c2ccc(C)cc2)C1=O (stereo not given) | -1.979 | -2.382
CCC(NC(=O)NCC(=O)Nc1ccc(F)cc1)c1ccncc1 (stereo not given) | 2.642 & 2.978 | 9.876
COc1cc(-c2cccc3c2OC(CN)C3)cc(OC)c1OC (stereo not given) | 53.73 & 45.51 | 32.47
c1cc(-c2cncnc2)cc(-c2ccn(CC3CCNC3)n2)c1 (stereo not given) | 16.69 | 22.28
CCCn1cc(C(=O)N2CCCC2(C)c2nc(C)cc(C)n2)cn1 (stereo not given) | 15.2 | 11.94
CCN1CCN(C)C(=O)C12CCN(Cc1csc(C)n1)CC2.O=C(O)C(F)(F)F | 4.294 | -4.66
O=C(c1cc2ccccc2o1)N1CCN(Cn2cc(Cl)cn2)CC1 | -17.44 | -28.56
COCCN1CCCC(Cc2cnc(-c3c(C)nn(C)c3C)cn2)C1 (stereo not given) | 1.552 | 5.652
O=c1c2ccccc2ncn1Cc1cc(C2CC2)[nH]n1 | -1.172 & 4.46 | -24.11
Cc1noc(-c2ccc(Oc3cccc(CN4CCCC4)c3F)nc2)n1 | -25.93 | 5.023
Cc1cc2ccccc2n1CCC(=O)N1CCCC2(CC1)CNC(=O)O2 (stereo not given) | -24.73 | 0.417
Cn1c(CO)cnc1SC(C(=O)NC1CC1)c1ccccc1 (stereo not given) | 2.496 | 5.037
O=C(O)C(F)(F)F.O=C(c1cscn1)N1CCC2(CN(Cc3ccsc3)C2)C1 | -31.95 | -15.29
[H][C@]12CCN(Cc3cnc(NCc4ccccc4)nc3)C[C@]([H])(CC1)N2 | 5.981 | 7.402
Cc1nn(C)c(C)c1CCC(=O)N(C)Cc1ccc(C#N)cc1 | 26.05 | 20.38
CCn1c(N)nc2cc(C(=O)NCCc3ccccc3F)cnc21 | -18.42 | 15.3
CC(O)CN1CCN(C(=O)c2ccn(-c3ccccc3Cl)n2)CC1 (stereo not given) | -24.22 | -12.47
CN(C)C(CNC(=O)NCCOc1ccccc1)c1ccco1 (stereo not given) | -5.847 | -11.36
Cn1cccc1C(=O)N1CCc2ncnc(N3CCCC3)c2CC1 | 23.29 | -11.82
O=C(C1CCC1)N1CCC(C2CCN(Cc3ccc(Cl)cc3)C2)CC1 (stereo not given) | 9.098 | -2.12
CC(=O)NCCNC(=O)c1cc(COc2ccccc2)[nH]n1 | -12.45 | -11.02
O=S1(=O)NCC2(CCN(c3ncc(F)cn3)CC2)COc2ccccc21 | 4.075 & -3.142 | 3.931
O=C(Cc1csc(-c2ccoc2)n1)NCCC(=O)N1CCCCC1 | -23.27 | -24.68 & -30.62
O=C(O)C(F)(F)F.[H][C@@]12C[C@@H](C(=O)NC(C)C)C[C@@]1([H])N(Cc1nccs1)CCO2 | 21.08 & -1.28 | 17.97
CCc1n[nH]c(C(=O)N2CCC3(CCCN(CCOC)C3=O)C2)c1C (stereo not given) | -34.47 | 4.518
CO[C@@H]1CCN(S(=O)(=O)c2cn(C)cn2)[C@H]1Cc1cnn(C)c1.O=C(O)C(F)(F)F | 2.888 & -6.609 | 0.9698
Cc1cccc(-n2ncc(C(=O)NCC3CCS(=O)(=O)C3)c2C)c1 (stereo not given) | 6.507 | -2.885
Cn1cccc1C(=O)NCc1cnc2n1CCN(CC1CCOCC1)C2.O=C(O)C(F)(F)F | -1.148 | -15.3
CCC(=O)N1CCC2(CC1)COc1ccccc1S(=O)(=O)N(C)C2 | 13.35 | 11.64
CC1c2ncc(Cn3cccn3)n2CCN1Cc1ccccn1.O=C(O)C(F)(F)F.O=C(O)C(F)(F)F (stereo not given) | -11.39 | -21.42
CC(NC(=O)c1csnn1)c1ccc(OCC2CC2)c(F)c1 (stereo not given) | 28.41 | 24.51
COC(=O)c1ncccc1N1CCN(C(=O)CN2CCOCC2)CC1 | -17.15 | 17.13
CCOc1cc(C(=O)N(C)C)ccc1NC(=O)C(C)c1ccsc1 (stereo not given) | -14.09 | 9.978 & 31.1
CC(C)(O)CN1CC(C)(C)CN(C(=O)CCc2ccccc2)CC1=O | 6.042 | 7.906
Cc1cc(C)c(CNCC(O)c2ccc(F)c(F)c2)c(C)c1.Cl (stereo not given) | -12.74 & 7.35 | -13.31
O=C(Cc1cc(-c2ccc3c(c2)OCO3)on1)NC1CCCC1 | -3.695 | -6.952
c1cc(C2CCN(Cc3nc(C4CC4)no3)CC2)[nH]n1 | -0.05667 | -7.262 & -10.9
Cc1cc(C)n(CC2CCCN2C(=O)Cc2c(C)nc(C)[nH]c2=O)n1 (stereo not given) | 7.453 | -31.27
Cc1cnc(-c2cccc(-c3ccn(CCCO)n3)c2)nc1N(C)C | 44.05 | 16.76
CCN(Cc1noc(C2CC2)n1)C(=O)c1onc2ccccc12 | 15.85 | -3.436
Cn1ccnc1CN1CCC2(CC1)CCN(c1cncnc1)C2=O.O=C(O)C(F)(F)F | -27.15 | -25.47 & -27.31
Cc1ccc(C(=O)N2CCN(CC(O)c3ccc(F)cc3)CC2)s1 (stereo not given) | -5.502 | -1.154
Cc1oc(-c2cccc(F)c2F)nc1CN(C)CCO | 36.91 | 18.06
CC(C)c1nc(CN2CCN(Cc3ccccn3)CC2)cs1 | -20.46 | -18.64
Cc1ccoc1CNCc1nnc2n1CCCC2C(F)(F)F (stereo not given) | -14.26 | -11.22
Cc1nccc(N2CCC(=O)N(CC3CC3)C(C(C)C)C2)n1 (stereo not given) | -16.9 | -10.16 & 1.701
O=C(c1cccc2c1OCO2)N1CCCCC1Cn1cccn1 (stereo not given) | -35.83 | -3.721
Cc1nc(CN(C)C2CCN(Cc3nnc(C4CC4)o3)C2)no1 (stereo not given) | -15.95 | -3.461
CC(O)CN1CCC(CNCc2cccc(C(N)=O)c2)CC1 (stereo not given) | 5.89 | -3.25
O=C1NCC2(CCCN(C(=O)c3ccc4c(c3)CCO4)C2)O1 (stereo not given) | -5.465 | -6.82
CC(Cn1cccn1)NC(=O)c1ccsc1 (stereo not given) | 15.97 | 21.23
CC(NC(=O)N1CCC(CO)CC1)c1csc2ccccc12 (stereo not given) | 18.64 | 14.14
Cc1n[nH]c(C(=O)NCc2ccnc(OCC(F)(F)F)c2)c1Br | 19.02 | -3.285
CN1CCN(c2cc(NC(=O)c3cnccn3)ncn2)CC1 | -0.9344 & 6.518 | 0.6589
CC(C)(C)c1n[nH]cc1CN1CCc2nc3ccsc3c(=O)n2CC1 | -29.81 | -0.6749
Cc1nc(CNCc2c(C(C)C)nn(C)c2N2CCOCC2)cs1 | -4.879 | -12.88
CC(C)n1nc2c(cc1=O)CN(c1ncnc3sccc13)CC2 | 16.71 | 14.44
CNc1cc(CNC(=O)c2ccnc(OC)c2)nc(-c2ccncc2)n1 | 11.42 | -6.883
O=C(CC1CCC1)N1CCCC(CO)(CC2CC2)C1 (stereo not given) | -17.86 & 0.4176 | -0.8156

8 of the entries, repeated:

* CCn1c(N)nc2cc(C(=O)NCCc3ccccc3F)cnc21 : Mtb glucose medium: -18.42%; Mtb cholesterol medium: 15.3%
* CN1CCCN(S(=O)(=O)c2cn(C)cn2)c2cc(F)ccc21 : Mtb glucose medium: 9.156%; Mtb cholesterol medium: 11.48%
* CCCn1cc(C(=O)N2CCCC2(C)c2nc(C)cc(C)n2)cn1 (stereo not given) : Mtb glucose medium: 15.2%; Mtb cholesterol medium: 11.94%
* Cc1cc(F)c(S(=O)(=O)Nc2ccn(CCCC#N)n2)cc1F : Mtb glucose medium: 6.099%; Mtb cholesterol medium: -12.82%
* Cc1nc(CN2CCCC(Cn3cc(CCO)nn3)C2)c[nH]1 (stereo not given) : Mtb glucose medium: 21.61%; Mtb cholesterol medium: 20.73%
* Cc1cccc(-n2ncc(C(=O)NCC3CCS(=O)(=O)C3)c2C)c1 (stereo not given) : Mtb glucose medium: 6.507%; Mtb cholesterol medium: -2.885%
* CC(C)(CNc1ccc(C#N)c(C(F)(F)F)c1)C(N)=O : Mtb glucose medium: 50.43%; Mtb cholesterol medium: 35.13%
* Cn1cccc1C(=O)N1CCc2ncnc(N3CCCC3)c2CC1 : Mtb glucose medium: 23.29%; Mtb cholesterol medium: -11.82%